Tested on: tubulin (colchicine site)
Experiment: Inhibition of [3H]colchicine binding to tubulin
Text: The methods used for determination of the IC50 values for tubulin assembly and inhibition of [^3H]colchicine binding were as described previously.[77]

Structure (SMILES): Cc1cc(NC([S-])=NN=Cc2cccc(C[NH+]3CCOCC3)n2)cc(C)c1O.[Cl-].[Cl-].[Pd+2] [Complex 8, [Pd^II(HL^1)Cl]Cl]
- fold less potent than CA-4 in inhibiting [3H]colchicine binding (5 μM): 7 fold
- factor of superiority over complex 4 in inhibiting [3H]colchicine binding (25 μM): 5
